Read-outs that look alike come from different tables or passages of the source. Results are given in words; binding and its absence hold for the method and conditions named. Binding seen in cells or lysates may run through a third protein. Some results given as binding are weak or reduced against the parent protein; the word gives no strength. For some of these results: Where a sequence is shown, tags or fusion partners need not be part of it.

The chains behind the UniProt entries cited, without tags or fusion partners.
UniProt P35580: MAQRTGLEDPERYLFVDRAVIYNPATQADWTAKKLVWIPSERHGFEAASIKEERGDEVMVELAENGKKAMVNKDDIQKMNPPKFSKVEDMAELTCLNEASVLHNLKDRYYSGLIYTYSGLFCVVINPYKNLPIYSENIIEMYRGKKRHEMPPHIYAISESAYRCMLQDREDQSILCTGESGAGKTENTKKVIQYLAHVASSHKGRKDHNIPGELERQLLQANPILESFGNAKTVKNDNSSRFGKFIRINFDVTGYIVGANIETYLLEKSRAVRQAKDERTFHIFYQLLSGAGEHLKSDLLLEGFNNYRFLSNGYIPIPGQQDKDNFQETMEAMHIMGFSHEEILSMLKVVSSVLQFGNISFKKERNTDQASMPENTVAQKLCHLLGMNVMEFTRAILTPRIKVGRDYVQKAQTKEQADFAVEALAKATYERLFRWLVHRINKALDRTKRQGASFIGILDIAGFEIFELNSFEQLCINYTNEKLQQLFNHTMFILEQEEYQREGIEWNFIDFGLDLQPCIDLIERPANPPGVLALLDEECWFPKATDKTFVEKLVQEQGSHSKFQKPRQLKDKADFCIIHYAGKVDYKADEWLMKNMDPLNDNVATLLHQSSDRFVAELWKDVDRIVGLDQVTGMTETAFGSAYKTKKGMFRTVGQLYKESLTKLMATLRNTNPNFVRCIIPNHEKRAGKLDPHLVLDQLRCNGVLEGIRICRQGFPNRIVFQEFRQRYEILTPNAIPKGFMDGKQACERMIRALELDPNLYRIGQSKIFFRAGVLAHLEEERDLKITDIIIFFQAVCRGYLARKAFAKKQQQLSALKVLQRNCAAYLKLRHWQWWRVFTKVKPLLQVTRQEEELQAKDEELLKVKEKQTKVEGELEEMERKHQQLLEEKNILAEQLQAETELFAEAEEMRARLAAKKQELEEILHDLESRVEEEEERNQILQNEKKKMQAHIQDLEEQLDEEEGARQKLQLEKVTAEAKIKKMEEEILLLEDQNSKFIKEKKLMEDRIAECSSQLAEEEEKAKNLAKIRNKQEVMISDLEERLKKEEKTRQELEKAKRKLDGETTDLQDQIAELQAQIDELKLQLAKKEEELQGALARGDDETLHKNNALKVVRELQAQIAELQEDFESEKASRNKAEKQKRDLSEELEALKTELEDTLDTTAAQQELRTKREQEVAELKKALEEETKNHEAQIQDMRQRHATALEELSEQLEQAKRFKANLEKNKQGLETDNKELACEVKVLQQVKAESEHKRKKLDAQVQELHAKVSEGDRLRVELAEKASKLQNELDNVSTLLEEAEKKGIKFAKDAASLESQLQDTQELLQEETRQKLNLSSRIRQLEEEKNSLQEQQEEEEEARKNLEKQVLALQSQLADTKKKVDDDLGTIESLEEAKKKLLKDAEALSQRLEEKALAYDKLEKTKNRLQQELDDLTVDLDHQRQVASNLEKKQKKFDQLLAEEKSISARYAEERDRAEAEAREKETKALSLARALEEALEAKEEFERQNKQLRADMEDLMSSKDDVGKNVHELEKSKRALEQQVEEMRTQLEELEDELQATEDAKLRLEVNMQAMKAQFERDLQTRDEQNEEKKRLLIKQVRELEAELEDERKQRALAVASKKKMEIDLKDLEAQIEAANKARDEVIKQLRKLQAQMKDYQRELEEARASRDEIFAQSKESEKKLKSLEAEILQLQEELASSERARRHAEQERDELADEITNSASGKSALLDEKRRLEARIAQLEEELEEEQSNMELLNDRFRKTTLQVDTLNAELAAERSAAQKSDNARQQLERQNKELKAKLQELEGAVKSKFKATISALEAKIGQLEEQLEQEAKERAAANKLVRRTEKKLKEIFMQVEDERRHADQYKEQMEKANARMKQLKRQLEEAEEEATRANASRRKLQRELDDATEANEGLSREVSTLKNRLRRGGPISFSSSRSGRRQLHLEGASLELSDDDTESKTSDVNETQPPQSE
UniProt P35579: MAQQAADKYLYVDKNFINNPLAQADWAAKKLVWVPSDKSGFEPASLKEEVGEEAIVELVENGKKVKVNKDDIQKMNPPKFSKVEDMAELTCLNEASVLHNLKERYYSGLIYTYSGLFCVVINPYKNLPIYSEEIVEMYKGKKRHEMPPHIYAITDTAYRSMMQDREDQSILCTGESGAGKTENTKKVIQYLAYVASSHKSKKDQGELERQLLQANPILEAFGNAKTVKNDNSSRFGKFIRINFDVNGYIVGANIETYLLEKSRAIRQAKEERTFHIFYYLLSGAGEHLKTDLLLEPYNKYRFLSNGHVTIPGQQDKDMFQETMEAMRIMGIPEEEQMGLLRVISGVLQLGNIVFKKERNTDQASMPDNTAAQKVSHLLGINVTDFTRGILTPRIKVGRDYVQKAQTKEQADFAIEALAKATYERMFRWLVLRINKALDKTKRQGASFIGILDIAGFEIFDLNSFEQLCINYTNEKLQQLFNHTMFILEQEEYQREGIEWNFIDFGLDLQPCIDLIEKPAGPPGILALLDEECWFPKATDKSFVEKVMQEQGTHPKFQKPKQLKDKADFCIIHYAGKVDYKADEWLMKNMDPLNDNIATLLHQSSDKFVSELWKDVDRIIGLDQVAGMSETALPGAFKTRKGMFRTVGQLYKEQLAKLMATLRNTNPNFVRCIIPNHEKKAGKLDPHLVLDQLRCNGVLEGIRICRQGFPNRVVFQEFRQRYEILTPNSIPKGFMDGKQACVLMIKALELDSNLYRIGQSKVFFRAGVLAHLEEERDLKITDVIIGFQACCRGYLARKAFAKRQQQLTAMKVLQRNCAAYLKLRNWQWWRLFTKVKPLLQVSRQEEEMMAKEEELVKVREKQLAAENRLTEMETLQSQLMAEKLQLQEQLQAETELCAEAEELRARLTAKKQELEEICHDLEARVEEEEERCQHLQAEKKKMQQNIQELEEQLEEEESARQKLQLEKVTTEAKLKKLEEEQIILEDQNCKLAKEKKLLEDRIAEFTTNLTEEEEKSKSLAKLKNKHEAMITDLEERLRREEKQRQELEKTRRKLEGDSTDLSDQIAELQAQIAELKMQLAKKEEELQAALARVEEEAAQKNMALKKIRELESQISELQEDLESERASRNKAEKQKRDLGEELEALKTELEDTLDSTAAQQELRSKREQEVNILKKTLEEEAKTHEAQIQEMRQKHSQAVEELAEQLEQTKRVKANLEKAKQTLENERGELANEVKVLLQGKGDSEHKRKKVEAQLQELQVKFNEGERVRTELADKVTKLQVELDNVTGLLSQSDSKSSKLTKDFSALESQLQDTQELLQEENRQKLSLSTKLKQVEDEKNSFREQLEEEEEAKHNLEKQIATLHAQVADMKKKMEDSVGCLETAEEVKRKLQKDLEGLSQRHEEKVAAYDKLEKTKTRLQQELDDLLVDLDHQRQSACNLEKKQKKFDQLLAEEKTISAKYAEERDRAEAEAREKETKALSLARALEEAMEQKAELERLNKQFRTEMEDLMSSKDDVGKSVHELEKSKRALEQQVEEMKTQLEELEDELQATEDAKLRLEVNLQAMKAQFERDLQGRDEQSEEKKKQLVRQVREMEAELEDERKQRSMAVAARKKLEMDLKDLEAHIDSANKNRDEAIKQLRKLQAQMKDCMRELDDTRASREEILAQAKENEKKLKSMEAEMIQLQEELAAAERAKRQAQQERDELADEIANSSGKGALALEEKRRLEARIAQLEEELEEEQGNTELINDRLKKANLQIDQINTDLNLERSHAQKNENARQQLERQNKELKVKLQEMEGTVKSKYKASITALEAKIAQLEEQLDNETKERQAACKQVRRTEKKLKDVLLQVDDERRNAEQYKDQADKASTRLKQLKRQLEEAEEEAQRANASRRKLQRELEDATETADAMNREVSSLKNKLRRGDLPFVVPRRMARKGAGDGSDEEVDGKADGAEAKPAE

The target in experiment [1] is myosin heavy-chain 10 (MYH10) (human (endogenous in A549 and MCF7)) (UniProt P35580). Kind of experiment: co-IP; total lysate of A549 or MCF7 cells (150 mM NaCl, 1% NP-40, 50 mM Tris-HCl pH 8.0, protease inhibitor) with anti-LAMC2, anti-MYH9 or anti-MYH10 on Dynal magnetic beads overnight at 4 °C, five washes with PBS, western blot; also control and LAMC2 overexpressing cells treated with tunicamycin.

For experiment [2], the target named is T1, Laminin-5γ-2 (LAMC2) (human (endogenous in A549 and MCF7)) (UniProt Q13753).
T1 sequence: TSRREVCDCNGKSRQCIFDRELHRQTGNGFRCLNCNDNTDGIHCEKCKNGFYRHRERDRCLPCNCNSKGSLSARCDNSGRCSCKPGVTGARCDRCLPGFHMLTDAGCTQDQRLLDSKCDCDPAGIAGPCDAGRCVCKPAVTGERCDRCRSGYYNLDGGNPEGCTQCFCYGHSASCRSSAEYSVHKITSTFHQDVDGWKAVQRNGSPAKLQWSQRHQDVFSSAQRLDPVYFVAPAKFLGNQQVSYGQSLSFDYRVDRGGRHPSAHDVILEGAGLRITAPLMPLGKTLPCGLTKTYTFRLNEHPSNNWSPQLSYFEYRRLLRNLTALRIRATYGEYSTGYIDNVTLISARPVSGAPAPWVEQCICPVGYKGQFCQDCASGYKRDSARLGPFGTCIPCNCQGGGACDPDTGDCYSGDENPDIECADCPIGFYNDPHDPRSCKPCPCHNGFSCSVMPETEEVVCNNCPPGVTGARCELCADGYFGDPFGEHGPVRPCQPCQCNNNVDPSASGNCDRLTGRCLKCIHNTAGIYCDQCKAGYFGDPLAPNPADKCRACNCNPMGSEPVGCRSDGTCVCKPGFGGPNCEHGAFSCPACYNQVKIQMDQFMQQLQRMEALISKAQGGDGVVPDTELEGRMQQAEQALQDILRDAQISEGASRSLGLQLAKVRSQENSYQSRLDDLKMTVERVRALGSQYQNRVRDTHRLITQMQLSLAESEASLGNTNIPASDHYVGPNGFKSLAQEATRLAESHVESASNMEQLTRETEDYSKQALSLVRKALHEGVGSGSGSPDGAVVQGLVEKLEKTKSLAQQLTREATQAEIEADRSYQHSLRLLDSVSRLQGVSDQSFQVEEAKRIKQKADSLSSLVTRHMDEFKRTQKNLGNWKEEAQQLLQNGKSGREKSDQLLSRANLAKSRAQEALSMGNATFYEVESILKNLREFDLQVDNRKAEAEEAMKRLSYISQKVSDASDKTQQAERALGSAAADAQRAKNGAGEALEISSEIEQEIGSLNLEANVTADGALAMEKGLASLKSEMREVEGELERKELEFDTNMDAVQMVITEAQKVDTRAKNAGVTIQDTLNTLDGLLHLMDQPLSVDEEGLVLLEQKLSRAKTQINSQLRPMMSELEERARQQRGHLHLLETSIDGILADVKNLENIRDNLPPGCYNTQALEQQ
Described as above.

A further experiment has as its target T2, His-tagged LAMC2 (UniProt Q13753).
T2 sequence: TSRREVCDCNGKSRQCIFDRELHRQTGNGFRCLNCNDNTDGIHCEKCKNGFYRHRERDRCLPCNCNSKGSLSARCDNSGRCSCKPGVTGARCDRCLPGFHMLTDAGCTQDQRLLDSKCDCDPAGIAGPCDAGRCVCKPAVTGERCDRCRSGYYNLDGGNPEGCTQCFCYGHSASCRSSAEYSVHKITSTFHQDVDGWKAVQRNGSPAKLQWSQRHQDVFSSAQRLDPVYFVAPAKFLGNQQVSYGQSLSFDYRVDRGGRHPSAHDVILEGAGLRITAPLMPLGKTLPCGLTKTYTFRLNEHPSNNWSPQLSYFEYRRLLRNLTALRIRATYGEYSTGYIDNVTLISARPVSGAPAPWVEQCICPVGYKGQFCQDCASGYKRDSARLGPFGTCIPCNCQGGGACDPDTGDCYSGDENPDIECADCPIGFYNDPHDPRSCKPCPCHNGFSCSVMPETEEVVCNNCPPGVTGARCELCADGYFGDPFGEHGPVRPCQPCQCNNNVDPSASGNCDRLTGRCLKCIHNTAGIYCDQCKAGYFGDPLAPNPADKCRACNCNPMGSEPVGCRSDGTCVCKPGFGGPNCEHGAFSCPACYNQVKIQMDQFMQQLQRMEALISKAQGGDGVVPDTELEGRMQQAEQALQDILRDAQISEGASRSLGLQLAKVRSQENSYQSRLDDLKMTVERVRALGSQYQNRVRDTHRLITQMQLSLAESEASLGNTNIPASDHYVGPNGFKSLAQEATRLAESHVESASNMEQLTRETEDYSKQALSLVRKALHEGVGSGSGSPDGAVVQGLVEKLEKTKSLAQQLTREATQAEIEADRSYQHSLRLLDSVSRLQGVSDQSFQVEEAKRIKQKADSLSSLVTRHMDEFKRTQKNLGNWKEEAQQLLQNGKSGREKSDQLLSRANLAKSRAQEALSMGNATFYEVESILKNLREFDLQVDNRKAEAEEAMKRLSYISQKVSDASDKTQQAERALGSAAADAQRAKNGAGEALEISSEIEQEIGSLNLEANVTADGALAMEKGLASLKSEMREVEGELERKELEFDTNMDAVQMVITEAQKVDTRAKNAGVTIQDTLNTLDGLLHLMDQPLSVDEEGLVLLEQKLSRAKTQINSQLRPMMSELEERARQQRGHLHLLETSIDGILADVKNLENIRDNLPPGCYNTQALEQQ
Kind of experiment: co-IP; lysate of A549 or MCF7 cells transfected with His-tagged LAMC2 plasmid (150 mM NaCl, 1% NP-40, 50 mM Tris-HCl pH 8.0), anti-His on Dynal magnetic beads overnight at 4 °C, five washes with PBS, western blot.

The target in experiment [3] is myosin heavy-chain 9 (MYH9) (human (endogenous in A549 and MCF7)) (UniProt P35579). Put plainly: co-IP; total lysate of A549 or MCF7 cells (150 mM NaCl, 1% NP-40, 50 mM Tris-HCl pH 8.0, protease inhibitor) with anti-LAMC2, anti-MYH9 or anti-MYH10 on Dynal magnetic beads overnight at 4 °C, five washes with PBS, western blot; also control and LAMC2 overexpressing cells treated with tunicamycin.

Experiment [4] addresses myosin heavy-chain 10 (MYH10) (human (endogenous in A549 and MCF7)) (UniProt P35580). Described as above. This is another data set of the same source.
In experiment [5] the target is myosin heavy-chain 9 (MYH9) (human (endogenous in A549 and MCF7)) (UniProt P35579). The description is as above. This is another data set of the same source.

As for “myosin heavy-chain 9 (MYH9) (from UniProt P35579 1-1960)”, the binding result (in experiment [1]; in experiment [2]; with His-tagged LAMC2) was “binds” throughout.
On to “myosin heavy-chain 10 (MYH10) (from UniProt P35580 1-1976)”, for which the binding entry (in experiment [2]; in experiment [3]; with His-tagged LAMC2) was “binds” throughout.

B1: LAMC2 of LAMC2 overexpressing cells (protein, UniProt Q13753 22-1193)
chain: TSRREVCDCNGKSRQCIFDRELHRQTGNGFRCLNCNDNTDGIHCEKCKNGFYRHRERDRCLPCNCNSKGSLSARCDNSGRCSCKPGVTGARCDRCLPGFHMLTDAGCTQDQRLLDSKCDCDPAGIAGPCDAGRCVCKPAVTGERCDRCRSGYYNLDGGNPEGCTQCFCYGHSASCRSSAEYSVHKITSTFHQDVDGWKAVQRNGSPAKLQWSQRHQDVFSSAQRLDPVYFVAPAKFLGNQQVSYGQSLSFDYRVDRGGRHPSAHDVILEGAGLRITAPLMPLGKTLPCGLTKTYTFRLNEHPSNNWSPQLSYFEYRRLLRNLTALRIRATYGEYSTGYIDNVTLISARPVSGAPAPWVEQCICPVGYKGQFCQDCASGYKRDSARLGPFGTCIPCNCQGGGACDPDTGDCYSGDENPDIECADCPIGFYNDPHDPRSCKPCPCHNGFSCSVMPETEEVVCNNCPPGVTGARCELCADGYFGDPFGEHGPVRPCQPCQCNNNVDPSASGNCDRLTGRCLKCIHNTAGIYCDQCKAGYFGDPLAPNPADKCRACNCNPMGSEPVGCRSDGTCVCKPGFGGPNCEHGAFSCPACYNQVKIQMDQFMQQLQRMEALISKAQGGDGVVPDTELEGRMQQAEQALQDILRDAQISEGASRSLGLQLAKVRSQENSYQSRLDDLKMTVERVRALGSQYQNRVRDTHRLITQMQLSLAESEASLGNTNIPASDHYVGPNGFKSLAQEATRLAESHVESASNMEQLTRETEDYSKQALSLVRKALHEGVGSGSGSPDGAVVQGLVEKLEKTKSLAQQLTREATQAEIEADRSYQHSLRLLDSVSRLQGVSDQSFQVEEAKRIKQKADSLSSLVTRHMDEFKRTQKNLGNWKEEAQQLLQNGKSGREKSDQLLSRANLAKSRAQEALSMGNATFYEVESILKNLREFDLQVDNRKAEAEEAMKRLSYISQKVSDASDKTQQAERALGSAAADAQRAKNGAGEALEISSEIEQEIGSLNLEANVTADGALAMEKGLASLKSEMREVEGELERKELEFDTNMDAVQMVITEAQKVDTRAKNAGVTIQDTLNTLDGLLHLMDQPLSVDEEGLVLLEQKLSRAKTQINSQLRPMMSELEERARQQRGHLHLLETSIDGILADVKNLENIRDNLPPGCYNTQALEQQ
On to B1, for which the binding result in experiment [4] and in experiment [5] was “binds” each time.

B2: Laminin-5γ-2 (LAMC2) (protein, UniProt Q13753 22-1193)
chain: TSRREVCDCNGKSRQCIFDRELHRQTGNGFRCLNCNDNTDGIHCEKCKNGFYRHRERDRCLPCNCNSKGSLSARCDNSGRCSCKPGVTGARCDRCLPGFHMLTDAGCTQDQRLLDSKCDCDPAGIAGPCDAGRCVCKPAVTGERCDRCRSGYYNLDGGNPEGCTQCFCYGHSASCRSSAEYSVHKITSTFHQDVDGWKAVQRNGSPAKLQWSQRHQDVFSSAQRLDPVYFVAPAKFLGNQQVSYGQSLSFDYRVDRGGRHPSAHDVILEGAGLRITAPLMPLGKTLPCGLTKTYTFRLNEHPSNNWSPQLSYFEYRRLLRNLTALRIRATYGEYSTGYIDNVTLISARPVSGAPAPWVEQCICPVGYKGQFCQDCASGYKRDSARLGPFGTCIPCNCQGGGACDPDTGDCYSGDENPDIECADCPIGFYNDPHDPRSCKPCPCHNGFSCSVMPETEEVVCNNCPPGVTGARCELCADGYFGDPFGEHGPVRPCQPCQCNNNVDPSASGNCDRLTGRCLKCIHNTAGIYCDQCKAGYFGDPLAPNPADKCRACNCNPMGSEPVGCRSDGTCVCKPGFGGPNCEHGAFSCPACYNQVKIQMDQFMQQLQRMEALISKAQGGDGVVPDTELEGRMQQAEQALQDILRDAQISEGASRSLGLQLAKVRSQENSYQSRLDDLKMTVERVRALGSQYQNRVRDTHRLITQMQLSLAESEASLGNTNIPASDHYVGPNGFKSLAQEATRLAESHVESASNMEQLTRETEDYSKQALSLVRKALHEGVGSGSGSPDGAVVQGLVEKLEKTKSLAQQLTREATQAEIEADRSYQHSLRLLDSVSRLQGVSDQSFQVEEAKRIKQKADSLSSLVTRHMDEFKRTQKNLGNWKEEAQQLLQNGKSGREKSDQLLSRANLAKSRAQEALSMGNATFYEVESILKNLREFDLQVDNRKAEAEEAMKRLSYISQKVSDASDKTQQAERALGSAAADAQRAKNGAGEALEISSEIEQEIGSLNLEANVTADGALAMEKGLASLKSEMREVEGELERKELEFDTNMDAVQMVITEAQKVDTRAKNAGVTIQDTLNTLDGLLHLMDQPLSVDEEGLVLLEQKLSRAKTQINSQLRPMMSELEERARQQRGHLHLLETSIDGILADVKNLENIRDNLPPGCYNTQALEQQ
As to B2, the binding entry in experiment [4] and in experiment [5] was “binds” in each case.

Source of the values: paper PMC10794146.
